The target of experiment [1] is T1, FITC-Ahx-GSGP(pT)IEEVD (human).
T1 sequence (peptide, FITC-Ahx on the N-terminus; phosphothreonine (pT; Thr636 in HSPA1A numbering)): GSGPTIEEVD
The experiment is described as follows: fluorescence polarisation; FITC-labelled peptide at 20 nM, recombinant CHIP constructs added at varied concentrations, 30 min at room temperature; one-site total binding fit, normalised to % of maximum binding; both purified.

Protein sequences, listed by entry. Tags and fused reporters are not part of them. Lines headed by an entry give the natural chain unless they say otherwise; changes in a name come on top.
UniProt Q9UNE7: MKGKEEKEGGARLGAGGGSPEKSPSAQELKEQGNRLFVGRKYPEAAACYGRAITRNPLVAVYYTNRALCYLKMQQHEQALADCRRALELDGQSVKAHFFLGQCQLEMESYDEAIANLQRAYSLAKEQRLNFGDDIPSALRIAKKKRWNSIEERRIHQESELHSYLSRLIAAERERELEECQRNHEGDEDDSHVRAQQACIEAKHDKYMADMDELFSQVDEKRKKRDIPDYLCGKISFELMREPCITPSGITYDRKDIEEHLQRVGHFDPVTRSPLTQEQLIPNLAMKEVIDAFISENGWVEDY

The target of another experiment is T2, FITC-Ahx-… (human).
T2 sequence (peptide, FITC-Ahx on the N-terminus): GSGPTIEEVD
The description is as above.

In experiment [2] the target is T3, HSP70 C-terminal octapeptide, phosphorylated at Thr636 (GP(pT)IEEVD) (human).
T3 sequence (peptide, phosphothreonine at 636 (pT, HSPA1A numbering)): GPTIEEVD
Kind of experiment: crystal structure; co-crystallisation of CHIP-TPR with peptide at 3:1 peptide:protein, 7 mg/ml total, sitting drop vapor diffusion at room temperature; 0.2 M lithium sulfate, 0.1 M Tris-HCl pH 8.5, 30% PEG 4000; both purified.

These are yes or no findings as the source states them, for the method shown. Some results given as binding are weak or reduced against the parent protein; the word gives no strength.

On to “full-length CHIP K30A (from UniProt Q9UNE7 1-303)”, for which the binding entry (in experiment [1]; with FITC-Ahx-… (human)) was “no binding” in each case.
On to “human CHIP-TPR (residues 21-154) (from UniProt Q9UNE7 21-154) (domain or fragment)”, for which the binding result in experiment [2] is given as “binds”.

The record behind these values is publication PMC13090976 (Cell Stress & Chaperones, 2026).
